Assay results reported in patent US20210113664A1, “IMPLANTS FOR RELEASE OF LIPOPHILIC OR AMPHIPHILIC PHARMACEUTICAL SUBSTANCES” (Titan Pharmaceuticals, Inc., priority 2018, published 2021).
For at least one compound, name, drawing or mass did not settle the structure.

Experiment: In vitro release of liraglutide from EVA rods in pH 7.4 phosphate buffered saline, HPLC analysis
Assay type: physicochemical
Settings: extruded rods of liraglutide-mannitol mixture and EVA, uncoated; after 24 hours; PBS pH 7.4, 37 °C, 50 RPM

CCCCCCCCCCCCCCCC(=O)N[C@@H](CCC(=O)NCCCC[C@H](NC(=O)[C@H](C)NC(=O)[C@H](C)NC(=O)[C@H](CCC(N)=O)NC(=O)CNC(=O)[C@H](CCC(=O)O)NC(=O)[C@H](CC(C)C)NC(=O)[C@H](Cc1ccc(O)cc1)NC(=O)[C@H](CO)NC(=O)[C@H](CO)NC(=O)[C@@H](NC(=O)[C@H](CC(=O)O)NC(=O)[C@H](CO)NC(=O)[C@@H](NC(=O)[C@H](Cc1ccccc1)NC(=O)[C@@H](NC(=O)CNC(=O)[C@H](CCC(=O)O)NC(=O)[C@H](C)NC(=O)[C@@H](N)Cc1cnc[nH]1)[C@@H](C)O)[C@@H](C)O)C(C)C)C(=O)N[C@@H](CCC(=O)O)C(=O)N[C@@H](Cc1ccccc1)C(=O)N[C@H](C(=O)N[C@@H](C)C(=O)N[C@@H](Cc1c[nH]c2ccccc12)C(=O)N[C@@H](CC(C)C)C(=O)N[C@H](C(=O)N[C@@H](CCCNC(=N)N)C(=O)NCC(=O)N[C@@H](CCCNC(=N)N)C(=O)NCC(=O)O)C(C)C)[C@@H](C)CC)C(=O)O [Liraglutide, liraglutide]
average release: 38.7±2.6%
